# Test results from PubChem BioAssay AID1671190 (National Center for Advancing Translational Sciences (NCATS), 2021).
# The chains behind the UniProt entries cited, without tags or fusion partners. Where a name states a change or a piece, a line headed by the entry shows the natural chain unless it says otherwise.
# UniProt P18054: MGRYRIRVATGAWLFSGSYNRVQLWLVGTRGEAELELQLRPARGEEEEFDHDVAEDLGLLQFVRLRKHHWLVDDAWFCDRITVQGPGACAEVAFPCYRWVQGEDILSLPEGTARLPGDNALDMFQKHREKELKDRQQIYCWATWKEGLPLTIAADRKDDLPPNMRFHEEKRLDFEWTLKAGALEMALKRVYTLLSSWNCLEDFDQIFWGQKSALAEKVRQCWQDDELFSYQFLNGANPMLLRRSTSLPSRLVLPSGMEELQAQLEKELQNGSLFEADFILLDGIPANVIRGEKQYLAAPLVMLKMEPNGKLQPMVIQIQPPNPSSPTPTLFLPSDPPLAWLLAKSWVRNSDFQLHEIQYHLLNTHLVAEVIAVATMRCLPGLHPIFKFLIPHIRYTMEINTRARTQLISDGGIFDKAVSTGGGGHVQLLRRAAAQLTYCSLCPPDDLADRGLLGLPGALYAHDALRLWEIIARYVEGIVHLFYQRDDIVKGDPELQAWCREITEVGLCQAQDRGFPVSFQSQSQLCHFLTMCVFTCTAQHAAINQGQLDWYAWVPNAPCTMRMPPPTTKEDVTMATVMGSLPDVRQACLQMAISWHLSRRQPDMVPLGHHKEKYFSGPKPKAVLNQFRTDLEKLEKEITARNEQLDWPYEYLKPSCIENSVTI
# In all, about 580,000 compounds went through this assay and about 6,100 (1.1%) were called active. The inconclusive results got no clear call from the source; some entries with a clear call stand among them for comparison. The call rests on the fitted dose curve; in most records, active means well fitted inhibition curve with a large enough effect; inconclusive means small, poorly fitted or top-dose-only effect, or another doubt; inactive means no such curve, though single readings can be large or run the other way. Potencies of inconclusive entries are doubtful fits and often do not repeat.
# Molecular target: Polyunsaturated fatty acid lipoxygenase ALOX12 (Homo sapiens) (UniProt P18054)
# Assay: Primary qHTS assay for inhibitors of human arachidonate 12S-lipoxygenase (ALOX12): Round 2
# Details: purified 12hLO, xylenol orange hydroperoxide absorbance; activity change, negative = inhibition: at 108 µM (top of the series) unless noted
# In short: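 Purified human 12hLO (150 nM final) in 25 mM Hepes, 0.01% Triton X-100, pH 7.0 was preincubated 15 min at room temperature with compound. Then 40 uM arachidonic acid was added, 30 min. Hydroperoxide was read by Fe-XO absorbance ratio 573/405 nm.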
# On the % scale 0 is the no-effect control and ±100 the full control effect; potency means the concentration at half of the fitted maximal effect.
Compound,Potency,"activity change, negative = inhibition"
CC(C)(C)n1cnc2cc(NS(=O)(=O)c3ccc(Br)cc3)ccc21,"inconclusive: 28.2 µM [inhibitor, single point]",
CCOc1ccccc1N1CCN(Cc2ccc(Br)s2)CC1,"inconclusive: 2 µM [inhibitor, full curve]",
O=C(COC(=O)c1c(Cl)ccc(Cl)c1Cl)NC1CCS(=O)(=O)C1 (centres undefined),inactive,
OC(COC(c1ccc(F)cc1)c1ccc(F)cc1)CN1CCCC1 (centres undefined),"inconclusive: 0.794 µM [inhibitor, full curve, poor fit]",
Fc1ccc(NC(=S)Nc2cccc3cnccc23)cc1,inactive,
Nc1nc(Cl)nc(Nc2ccccc2)c1[N+](=O)[O-],"inconclusive: 50.1 µM [inhibitor, partial curve, poor fit]",
COC(=O)CCCCCNC(=S)Nc1ccc2[nH]c(=O)[nH]c2c1,"inconclusive: 50.1 µM [inhibitor, partial curve, poor fit]",
CCN(CC)c1ccc(/C=N/N2CCOCC2)c(O)c1,inactive,
CSC1=C(C#N)C(c2ccncc2)C(C(=O)Nc2ccccc2)=C(C)N1 (centres undefined),inactive,
CCCc1ncc(C(O)c2ccc(OC)cc2)n1C (centres undefined),inactive,
CCOc1cc(/C=C2/C(=O)ON=C2C)ccc1O,"inconclusive: 17.8 µM [inhibitor, full curve, poor fit]",
CCOC(=O)C1=C(CSCc2ccccc2)NC(=O)NC1c1cc(C)ccc1C (centres undefined),"inconclusive: 39.8 µM [inhibitor, partial curve, poor fit]",
O=[N+]([O-])c1ccc(Oc2cccnc2)c([N+](=O)[O-])c1,"inconclusive: 63.1 µM [inhibitor, partial curve, poor fit]",
COCC(=O)Nc1ccc([C@H]2OCC(=O)N(Cc3scnc3C)[C@@H]2CO)cc1,,inconclusive: -31.8% [inhibitor] [at 176 µM]
CN1C(=O)C(NC(=O)C(=O)NCCc2c[nH]c3ccc(Cl)cc23)c2ccccc21 (centres undefined),"inconclusive: 89.1 µM [inhibitor, partial curve, poor fit]",
COCCNc1nc(-c2ccccc2C(F)(F)F)nc2ccccc12,"inconclusive: 7.94 µM [inhibitor, full curve, poor fit]",
CCC(=O)N1Cc2ccccc2CC2(CCN(Cc3ccc(OC)cc3)C2)C1 (centres undefined),"inconclusive: 31.6 µM [inhibitor, full curve]",
Cc1nc(SCC(=O)Nc2ccc3c(c2)OCCCO3)c(C#N)c(C)c1C,"inconclusive: 0.631 µM [inhibitor, full curve, poor fit]",
COc1cc(/C=N/N=C2\CC3CCC2(C)C3(C)C)ccc1O (centres undefined),inactive,

# A run of entries from further up, for reference:
Compound,Potency,"activity change, negative = inhibition"
COCC(=O)Nc1ccc([C@H]2OCC(=O)N(Cc3scnc3C)[C@@H]2CO)cc1,,inconclusive: -31.8% [inhibitor] [at 176 µM]
CN1C(=O)C(NC(=O)C(=O)NCCc2c[nH]c3ccc(Cl)cc23)c2ccccc21 (centres undefined),"inconclusive: 89.1 µM [inhibitor, partial curve, poor fit]",
